Assay results reported in PubChem BioAssay AID540256 (National Center for Advancing Translational Sciences (NCATS), 2011).
Among all 300,000 compounds or so, about 3,700 (1.2%) were called active. The inconclusive results got no clear call from the source; some entries with a clear call stand among them for comparison. Calls follow the shape of the full dose curve; tested in HEK293 cells. Potencies of inconclusive entries are doubtful fits and often do not repeat.

experiment: qHTS for Inhibitors of binding or entry into cells for Lassa Virus; conditions: Lassa virus pseudotype entry inhibition, cell reporter; activity change, negative = inhibition: at 37.9 µM (top of the series) unless noted; also: nearly all actives have a fitted effect of over 50% in size
% is scaled to controls: 0 for no effect and ±100 for the full control effect; potency is read from the fitted curve at half-maximal effect.

Structure (SMILES)	Potency	activity change, negative = inhibition
O=[N+]([O-])c1ccc(N2CCNCC2)cc1Sc1ccccn1	inconclusive: 7.94 µM [activator, partial curve, poor fit]	–
O=C1C=C(NCC2CCCO2)CC(c2ccccc2)C1 (centres undefined)	–	inactive: 13.4%
c1ccc2c(c1)[nH]c1nc(SCCN3CCOCC3)nnc12	inconclusive: 10 µM [inhibitor, partial curve]	–
CCOC(=O)c1c(NC(=O)CS(=O)(=O)c2cn(CC)c3ccccc23)sc2c1CCCCC2	inconclusive: 29.1 µM [inhibitor, single point]	–
N#C/C(=C\c1ccccc1[N+](=O)[O-])C(=O)NC1CCCCC1	inconclusive: 35.5 µM [inhibitor, single point]	–
CCC(NC(=O)NC1=NCCS1)(C(F)(F)F)C(F)(F)F	–	inactive: 10.1%
COc1ccccc1CNC(=O)C1(c2cccs2)CCOCC1	–	inactive: 1.55% [at 46.1 µM]
COc1ccc(-c2nc3nc(C)cc(C)n3c2Nc2c(C)cccc2C)cc1	inconclusive: 14.1 µM [inhibitor, single point]	–
COc1ccc(N=c2oc3ccc(OC)cc3cc2-c2nc3ccccc3[nH]2)cc1	inconclusive: 29.1 µM [inhibitor, single point]	–
O=C1c2ccccc2C(=O)c2cc(NC(=O)C3CC3)ccc21	–	inactive: -10.4%
CC1=C(C(=O)Nc2cccnc2)C(c2ccc(F)cc2)n2nc(-c3cccc(C)c3)nc2N1 (centres undefined)	–	inactive: -11.3% [at 46.1 µM]
NC(=O)CSc1nnc(-c2ccc(S(=O)(=O)N3CCCC3)cc2)o1	–	inactive: -8.06%
COc1ccc(NC(=O)CC2CC3CCC2C3)cc1S(=O)(=O)N1CCOCC1 (centres undefined)	inconclusive: 5.01 µM [inhibitor, full curve]	–
COC(=O)C1=CN(c2ccc(OC)cc2)C=C(C(=O)OC)C1c1ccc([N+](=O)[O-])cc1	inconclusive: 0.562 µM [inhibitor, full curve, poor fit]	–
CC1CCC(C(C)C)C(OC(=O)COC(=O)c2cccn2C)C1 (centres undefined)	inconclusive: 29.1 µM [inhibitor, single point]	–
CCOC(=O)c1c(NC(=O)c2cc(-c3ccccc3OC)on2)sc(C)c1C	inconclusive: 5.62 µM [activator, single point]	–
COc1ccc(/C(C)=N/NC(=O)C2C3CCCCC32)c(OC)c1 (centres undefined)	–	inactive: -24.7%
NC(=O)c1nsc(C(=O)N(Cc2ccccc2Cl)C(C(=O)NCC2CCCO2)c2ccc(O)cc2)c1N (centres undefined)	inconclusive: 8.91 µM [inhibitor, partial curve, poor fit]	–
O=C(CCl)Nc1ccc(Sc2ccc(NC(=O)CCl)cc2)cc1	inconclusive: 5.01 µM [inhibitor, full curve, poor fit]	–
O=C1OCCN1C(=O)[C@H]1[C@H](c2ccc([N+](=O)[O-])cc2)C(c2cccc(Cl)c2)=NN1c1ccccc1	inconclusive: 1.16 µM [activator, full curve]	–
CCCN(CCC)Cc1cc2ccccc2c2c1COC2	inconclusive: 1.26 µM [inhibitor, partial curve, poor fit]	–
C[C@@H]1C[C@H](Nc2ccccc2)c2ccccc2N1C(=O)c1cccnc1	inconclusive: 22.4 µM [inhibitor, partial curve, poor fit]	–

Structure (SMILES)	Potency	activity change, negative = inhibition
Nc1nnc(SCC(=O)Nc2sc3c(c2C(=O)c2ccccc2)CCCC3)s1	–	inactive: 6.12%
Cn1cccc1C1Nc2ccccc2NC2=C1C(=O)CC(C)(C)C2 (centres undefined)	inconclusive: 35.5 µM [activator, single point]	–
c1ccc(CN(Cc2ccccc2)c2ncnc3c2nnn3Cc2ccccc2)cc1	inconclusive: 2.51 µM [inhibitor, partial curve, poor fit]	–
CC(C)CN(CC(C)C)S(=O)(=O)N1CCC(C(=O)NCCc2ccc(Cl)cc2)CC1	inconclusive: 7.3 µM [inhibitor, partial curve, poor fit]	–
CSCCC1NC(=O)C(C(C)=NNC(N)=O)=C1O (centres undefined)	–	inactive: 8.28%
O=C(NC(=S)NCC1CCCO1)c1ccc(Br)o1 (centres undefined)	–	inactive: 16.3% [at 46.1 µM]
Cc1nc2cc(NC(=O)N3c4ccccc4CC3C)ccc2n1C (centres undefined)	inconclusive: 18.3 µM [inhibitor, single point]	–
O=C(NCc1ccc2c(c1)OCO2)c1ccc(CS(=O)Cc2ccc(Cl)cc2)o1 (centres undefined)	inconclusive: 12.6 µM [inhibitor, partial curve, poor fit]	–
CC1CCN(C(=O)COC(=O)c2c[nH]c3ccccc23)CC1	–	inactive: -1.41%
O=C1CSC(c2ccccc2)N1c1ccc(F)cc1F (centres undefined)	inconclusive: 1.26 µM [inhibitor, single point]	–
Cc1ccccc1CC(=O)NCc1cccnc1	inconclusive: 0.708 µM [inhibitor, single point]	–
CCOC(=O)N1CCN(CC(=O)Nc2ccc(OC)cc2)CC1	inconclusive: 0.58 µM [inhibitor, full curve]	–
O/C(=C\c1ccc2ccccc2n1)c1ccc(O)cc1O	inconclusive: 22.4 µM [inhibitor, single point]	–
CC(C)Sc1nnc([C@@H](N)Cc2ccccc2)o1	–	inactive: 6.95%
CCN1CCN(S(=O)(=O)c2ccc(Cl)c(C(=O)NCc3nc4ccccc4[nH]3)c2)CC1	inconclusive: 7.08 µM [inhibitor, full curve]	–
Cc1cc(C)cc(OCCSc2nc3ccc(NC(=O)c4ccc5c(c4)OCO5)cc3s2)c1	–	inactive: 12.1% [at 46.1 µM]
COc1ccccc1C(=O)NNC1=C(C(=O)C(F)(F)F)CCC1	inconclusive: 13 µM [inhibitor, partial curve]	–
COC(=O)c1c(C)[nH]c(C(=O)OCC(=O)N(CC(C)C)c2c(N)n(Cc3ccccc3)c(=O)[nH]c2=O)c1C	–	inactive: -34.8% [at 46.1 µM]
COc1cccc(/C=C2\CCCCC2=O)c1	inconclusive: 7.94 µM [activator, partial curve]	–
O=C(c1cc2ccccc2o1)N1CCN(c2ccccc2Cl)CC1	–	inactive: -29.8%
COc1ccc(F)cc1S(=O)(=O)Nc1cc2c3c(c1)CCC(=O)N3CCC2	inconclusive: 22.4 µM [inhibitor, single point]	–
O=C(NNC(=O)c1cccc(S(=O)(=O)N2CCc3ccccc32)c1)c1ccccc1	inconclusive: 7.08 µM [inhibitor, full curve, poor fit]	–

Part of the list above, bar-delimited.
Structure (SMILES) | Potency | activity change, negative = inhibition
O/C(=C\c1ccc2ccccc2n1)c1ccc(O)cc1O | inconclusive: 22.4 µM [inhibitor, single point] | –
CCN1CCN(S(=O)(=O)c2ccc(Cl)c(C(=O)NCc3nc4ccccc4[nH]3)c2)CC1 | inconclusive: 7.08 µM [inhibitor, full curve] | –
